Values quoted from earlier work in patent publication US20110251275A1, “OMEGA-3 FATTY ACIDS FOR REDUCTION OF LP-PLA2 LEVELS” (priority 2006, published 2011).
At least one compound was matched to its structure with a doubt left.

System: Lp-PLA2

SMILES	Lp-PLA2 levels rose (O'Donoghue et al. 2006) [%]	reduction in Lp-PLA2 levels (Packard et al., patients treated) [%]	lowered Lp-PLA2 levels (Muhleshtein et al. 2006, simvastatin alone) [%]
CC[C@H](C)C(=O)O[C@H]1C[C@H](O)C=C2C=C[C@H](C)[C@H](CC[C@@H](O)C[C@@H](O)CC(=O)O)[C@H]21 [pravastatin]	3.6	17	–
CCC(C)(C)C(=O)O[C@H]1C[C@@H](C)C=C2C=C[C@H](C)[C@H](CC[C@@H]3C[C@@H](O)CC(=O)O3)[C@H]21 [simvastatin]	–	–	25
